In PMC12695944, “Geminin inhibits DNA replication licensing by sterically blocking CDT1-MCM2 interactions” (Nature Communications, 2025):
No constants are given. Whether binding was seen depends on the method and setting. Some results given as binding are weak or reduced against the parent protein; the word gives no strength. For part of these data: Where a sequence is shown, tags or fusion partners need not be part of it. Each block holds one binder with its values, some of them ahead of it.

Protein sequences, listed by entry. Tags and fused reporters are not part of them. Lines headed by an entry give the natural chain unless they say otherwise; changes in a name come on top.
UniProt Q13415: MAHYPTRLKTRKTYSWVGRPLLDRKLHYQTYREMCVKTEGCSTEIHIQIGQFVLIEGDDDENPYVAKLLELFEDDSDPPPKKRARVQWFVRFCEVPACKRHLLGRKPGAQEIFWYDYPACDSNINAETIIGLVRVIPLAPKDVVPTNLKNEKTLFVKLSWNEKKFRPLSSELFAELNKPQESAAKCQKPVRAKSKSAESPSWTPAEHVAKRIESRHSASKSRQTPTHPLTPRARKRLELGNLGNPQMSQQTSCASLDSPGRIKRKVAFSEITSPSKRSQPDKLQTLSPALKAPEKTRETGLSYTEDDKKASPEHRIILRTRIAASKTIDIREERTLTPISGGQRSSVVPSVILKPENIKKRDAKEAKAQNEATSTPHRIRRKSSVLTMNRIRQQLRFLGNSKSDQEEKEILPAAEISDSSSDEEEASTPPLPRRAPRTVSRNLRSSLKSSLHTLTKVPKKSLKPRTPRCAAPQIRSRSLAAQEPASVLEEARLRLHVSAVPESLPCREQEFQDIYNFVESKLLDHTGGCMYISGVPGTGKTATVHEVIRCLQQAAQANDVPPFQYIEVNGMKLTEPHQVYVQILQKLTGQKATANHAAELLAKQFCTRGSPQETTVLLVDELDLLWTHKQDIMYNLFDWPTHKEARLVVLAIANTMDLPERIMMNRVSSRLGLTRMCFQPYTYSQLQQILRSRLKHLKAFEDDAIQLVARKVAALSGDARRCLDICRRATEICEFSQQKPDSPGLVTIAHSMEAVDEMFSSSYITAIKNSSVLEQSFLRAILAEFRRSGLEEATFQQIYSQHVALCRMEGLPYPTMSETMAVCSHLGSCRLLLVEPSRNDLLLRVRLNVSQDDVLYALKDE

Key:
[1] = target: T1, full-length geminin (Gem^FL) (human) (UniProt O75496); assay: co-purification; His-geminin and untagged CDT1 co-expressed in E. coli; HisTrap, tag cleavage, POROS HQ, size exclusion as for geminin
T1 sequence: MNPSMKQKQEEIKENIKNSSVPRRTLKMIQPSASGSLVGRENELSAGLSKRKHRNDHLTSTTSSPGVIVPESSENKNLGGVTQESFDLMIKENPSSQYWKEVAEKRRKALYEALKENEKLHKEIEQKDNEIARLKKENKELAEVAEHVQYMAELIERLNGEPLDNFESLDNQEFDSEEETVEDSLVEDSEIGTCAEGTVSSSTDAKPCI

Gem^96–130 (human) = Gem^96–130 (human) (UniProt O75496); assay: SEC-MALS; Superdex 200 Increase 10/300 GL; peptides 500–1000 µM, 100 µL injected; 10 mM HEPES, 150 mM NaCl, 1 mM TCEP-HCl, pH 7.5; 0.25 mL/min; both purified
[2] = target: T2, CDT1^ΔN (N-terminally truncated CDT1^158-546) (human) (UniProt Q9H211); assay: SPR; multi-cycle; CDT1^ΔN captured by its N-terminal His tag on an NTA chip; geminin peptides 0.49–250 nM (two-fold steps); 25 °C; 10 mM HEPES, 500 mM NaCl, 50 µM EDTA, 1 mM TCEP-HCl, 0.05% Tween-20, pH 8.0; 1:1 kinetic model of analyte dimer:CDT1, steady-state 1:1 model for Gem^96–160 and Gem^102–160; both purified
T2 sequence: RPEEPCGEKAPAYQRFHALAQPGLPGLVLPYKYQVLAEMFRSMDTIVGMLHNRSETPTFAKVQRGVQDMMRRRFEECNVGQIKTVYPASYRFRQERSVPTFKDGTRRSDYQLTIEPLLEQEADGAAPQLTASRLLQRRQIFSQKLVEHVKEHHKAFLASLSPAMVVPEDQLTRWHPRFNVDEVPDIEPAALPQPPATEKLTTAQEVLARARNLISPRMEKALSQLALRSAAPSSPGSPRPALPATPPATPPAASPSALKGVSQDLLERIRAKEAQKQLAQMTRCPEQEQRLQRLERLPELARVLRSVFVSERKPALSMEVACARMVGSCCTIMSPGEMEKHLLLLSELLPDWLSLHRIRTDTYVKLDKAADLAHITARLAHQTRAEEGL

[3] = target: ORC1-5-CDC6-MCM2-7 complex assembled on origin DNA (the pre-RC / OCCM without CDT1) (human) (UniProt Q13415); assay: pre-RC assay (reconstituted proteins on DNA-coupled beads); as the pre-RC assay but with 1 mM ATPγS (arrest at the OCCM); Cy3-CDT1^ΔN; ± geminin from the start; low-salt wash; silver stain and Cy3 fluorescence; both purified
[4] = target: T3, CDT1 C-terminal helical domain (CDT1^CHD, residues 391–546) (human) (UniProt Q9H211); assay: condition: 150 nM CDT1^CHD with 300 nM geminin monomer, diluted 1:10 on the instrument; mass photometry; room temperature; proteins incubated at CDT1:geminin monomer ratios 0:1, 1:0, 1:2, 1:3, 2:4, 1:4 (1 part = 150 nM) in pre-RC buffer minus Triton X-100, diluted 1:10 in PBS on the instrument; MHD, CHD at 1:2; both purified
T3 sequence: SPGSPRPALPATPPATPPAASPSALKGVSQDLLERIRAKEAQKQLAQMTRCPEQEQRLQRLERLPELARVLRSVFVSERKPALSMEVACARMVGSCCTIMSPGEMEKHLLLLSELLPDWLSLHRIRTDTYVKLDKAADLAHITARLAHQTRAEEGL

[5] = target: ORC1-5-CDC6-MCM2-7 complex assembled on origin DNA (the pre-RC / OCCM without CDT1) (human) (UniProt Q13415); assay: pre-RC assay (reconstituted proteins on DNA-coupled beads); 47 nM ORC1-5, 94 nM ORC6, 94 nM CDC6, 47 nM CDT1, 70 nM MCM2-7, ± 94 nM geminin; 25 mM HEPES-KOH pH 7.5, 250 mM KGlu, 4 mM MgOAc, 0.1% Triton X-100, 1 mM ATP, 30 °C; lamin B2 DNA on streptavidin beads; low-salt wash; DNaseI elution; silver stain or anti-CDT1 blot; both purified

binding [1]: binds
B1: full-length CDT1 (CDT1^FL), untagged, co-expressed with geminin (CG complex) (protein, UniProt Q9H211 1-546)
chain: MEQRRVTDFFARRRPGPPRIAPPKLACRTPSPARPALRAPASATSGSRKRARPPAAPGRDQARPPARRRLRLSVDEVSSPSTPEAPDIPACPSPGQKIKKSTPAAGQPPHLTSAQDQDTISELASCLQRARELGARVRALKASAQDAGESCTPEAEGRPEEPCGEKAPAYQRFHALAQPGLPGLVLPYKYQVLAEMFRSMDTIVGMLHNRSETPTFAKVQRGVQDMMRRRFEECNVGQIKTVYPASYRFRQERSVPTFKDGTRRSDYQLTIEPLLEQEADGAAPQLTASRLLQRRQIFSQKLVEHVKEHHKAFLASLSPAMVVPEDQLTRWHPRFNVDEVPDIEPAALPQPPATEKLTTAQEVLARARNLISPRMEKALSQLALRSAAPSSPGSPRPALPATPPATPPAASPSALKGVSQDLLERIRAKEAQKQLAQMTRCPEQEQRLQRLERLPELARVLRSVFVSERKPALSMEVACARMVGSCCTIMSPGEMEKHLLLLSELLPDWLSLHRIRTDTYVKLDKAADLAHITARLAHQTRAEEGL

binding [2]: no binding (tested: 0.49–250 nM peptide)
Binder: SQYWKEVAEKRRKALYEALKENEKLHKEIEQKDNE (peptide, UniProt O75496 96-130, N-terminal acetyl) [Gem^96–130]
binding (Gem^96–130 (human)): no binding (tested: 500–1000 µM injected)

binding [3]: no binding | binding [4]: no binding | binding [5]: no binding (tested: 94 nM geminin)
B2: full-length geminin (Gem^FL) (natural protein, human, UniProt O75496 1-209, looked up)
chain: MNPSMKQKQEEIKENIKNSSVPRRTLKMIQPSASGSLVGRENELSAGLSKRKHRNDHLTSTTSSPGVIVPESSENKNLGGVTQESFDLMIKENPSSQYWKEVAEKRRKALYEALKENEKLHKEIEQKDNEIARLKKENKELAEVAEHVQYMAELIERLNGEPLDNFESLDNQEFDSEEETVEDSLVEDSEIGTCAEGTVSSSTDAKPCI
notes: geminin, human, UniProt O75496, full length; Dimer in solution; In the co-purification of the CG complex the His tag is still on geminin at the HisTrap step and is cleaved afterwards; Plasmid is in Supplementary Data 1; also called WT geminin; source: E. coli BL21 (DE3), purified (HisTrap Excel, POROS HQ, Superdex 200); also co-expressed with untagged CDT1 in E. coli BL21 (DE3) and purified in …
